PubChem BioAssay AID1224826 – NIAID | 2016

Assay: 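Genes that change LPS-induced Tnf promoter activity in mouse macrophages when knocked down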 (primary screen)
Cell system: RAW264.7 G9 macrophages from mouse bearing reporters for p65 (GFP) and the Tnf promoter (mCherry)
Reagents: siRNA pool against mouse genes, 100 nM
Time to read-out: 16 h of LPS stimulation, after 2 days of siRNA transfection
Treatment: bacterial lipopolysaccharide (Salmonella minnesota R595), 10 ng/ml
Read-out: 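Nuclear mCherry signal of the Tnf promoter reporter measured by imaging after background removal, scaled to each plate median and turned into robust z-scores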
Reading the numbers: Tnf reporter robust z-score: higher = stronger Tnf promoter reporter signal after LPS; Tnf reporter intensity: higher = stronger Tnf promoter reporter signal
Hit rule: 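Called active when robust z-score is at most -1.3, matching the median of the Tlr4 knock-down control, or over 3; control wells and wells with under 50 cells never active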
Calls: active = Tnf reporter clearly lowered or raised; inactive = no clear change in Tnf reporter
In all, the deposit lists about 17,000 reagents; below is a random part of them. In the full data, about 1,110 (6.6%) are marked active. 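Active means lowered or raised reporter signal; replicate intensities are raw and not normalised per plate.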

The first 5 entries, to show the layout:
Gene | PubChem SID | Tnf reporter robust z-score | fewer than 50 cells in well | Tnf reporter intensity, replicate 1 | Tnf reporter intensity, replicate 2 | Outcome
Cxcl11 | SID315471359 | 0.67 | enough cells in well | 331 | 205 | inactive
Arhgap11a | SID315478634 | -0.67 | enough cells in well | 158 | 127 | inactive
Aifm3 | SID315474480 | 0.35 | enough cells in well | 349 | 57 | inactive
Magel2 | SID315470597 | -0.76 | enough cells in well | 175 | 80.2 | inactive
Sgms1 | SID315477535 | 0.65 | enough cells in well | 212 | 221 | inactive

The listing, from the start:
Gene | PubChem SID | Tnf reporter robust z-score | fewer than 50 cells in well | Tnf reporter intensity, replicate 1 | Tnf reporter intensity, replicate 2 | Outcome
Cxcl11 | SID315471359 | 0.67 | enough cells in well | 331 | 205 | inactive
Arhgap11a | SID315478634 | -0.67 | enough cells in well | 158 | 127 | inactive
Aifm3 | SID315474480 | 0.35 | enough cells in well | 349 | 57 | inactive
Magel2 | SID315470597 | -0.76 | enough cells in well | 175 | 80.2 | inactive
Sgms1 | SID315477535 | 0.65 | enough cells in well | 212 | 221 | inactive
Etfrf1 | SID315473137 | 0.96 | enough cells in well | 272 | 75.9 | inactive
Il1bos | SID315481533 | -0.52 | enough cells in well | 156 | 148 | inactive
Il17rd | SID315477362 | – | fewer than 50 cells per well; well left out of calls | 206 | 48 | inactive
Il17rd | SID315477363 | -1.94 | enough cells in well | 80.9 | 35.3 | active
Lce1m | SID315472287 | 2.72 | enough cells in well | 232 | 154 | inactive
Arl1 | SID315476430 | 0.9 | enough cells in well | 263 | 175 | inactive
Psg19 | SID315470413 | – | fewer than 50 cells per well; well left out of calls | 43.3 | 45 | inactive
4930486L24Rik | SID315477878 | – | fewer than 50 cells per well; well left out of calls | 128 | 27.1 | inactive
Dipk1b | SID315471429 | 0.01 | enough cells in well | 230 | 109 | inactive
Ndufc2 | SID315473450 | 1.1 | enough cells in well | 302 | 111 | inactive
Slc25a32 | SID315473931 | 0.44 | enough cells in well | 181 | 199 | inactive
Dnmbp | SID315474400 | 0.86 | enough cells in well | 189 | 182 | inactive
Or12k8 | SID315480053 | -1.13 | enough cells in well | 117 | 58.6 | inactive
Coa5 | SID315475255 | – | fewer than 50 cells per well; well left out of calls | 175 | 57.6 | inactive
Coa5 | SID315475256 | 0.64 | enough cells in well | 210 | 182 | inactive
Arfgap3 | SID315472318 | -0.12 | enough cells in well | 140 | 187 | inactive
2210408I21Rik | SID315474532 | 1.81 | enough cells in well | 245 | 34.1 | inactive
Akap5 | SID315479392 | -0.71 | enough cells in well | 128 | 142 | inactive
Tas2r139 | SID315481696 | 1.01 | enough cells in well | 402 | 86.4 | inactive
Cln5 | SID315477674 | -0.8 | enough cells in well | 164 | 167 | inactive
Ubald2 | SID315481078 | – | fewer than 50 cells per well; well left out of calls | 145 | 26.8 | inactive
Cars1 | SID315470559 | -0.14 | enough cells in well | 122 | 215 | inactive
Ap1s2 | SID315476666 | 0.17 | enough cells in well | 244 | 173 | inactive
Defb11 | SID315479854 | 0.98 | enough cells in well | 261 | 206 | inactive
Fbxo28 | SID315473329 | 2.06 | enough cells in well | 267 | 316 | inactive
Ankrd34c | SID315481631 | 0.05 | enough cells in well | 171 | 170 | inactive
Slitrk6 | SID315479430 | -1.42 | enough cells in well | 70 | 46.1 | active
Uhrf1 | SID315468217 | -0.13 | enough cells in well | 190 | 255 | inactive
Fblim1 | SID315474905 | – | fewer than 50 cells per well; well left out of calls | 341 | 121 | inactive
Retsat | SID315473026 | – | fewer than 50 cells per well; well left out of calls | 144 | 50.3 | inactive
Rps9 | SID315475391 | -0.87 | enough cells in well | 87.9 | 138 | inactive
Il1rapl2 | SID315472012 | -0.4 | enough cells in well | 204 | 132 | inactive
Polr1b | SID315469027 | 0.47 | enough cells in well | 159 | 137 | inactive
Ect2 | SID315466429 | -0.39 | enough cells in well | 173 | 228 | inactive
Txndc17 | SID315471005 | 1.9 | enough cells in well | 193 | 147 | inactive
Saa4 | SID315469090 | -0.96 | enough cells in well | 97.4 | 75.8 | inactive
Cenpu | SID315474359 | – | fewer than 50 cells per well; well left out of calls | 67 | 73 | inactive
Capn7 | SID315465750 | 0.42 | enough cells in well | 232 | 141 | inactive
Pkp1 | SID315468556 | -0.25 | enough cells in well | 242 | 162 | inactive
Asb2 | SID315472156 | 0.22 | enough cells in well | 147 | 186 | inactive
Zbtb14 | SID315470097 | 0.06 | enough cells in well | 204 | 270 | inactive
Dnd1 | SID315477790 | -0.54 | enough cells in well | 149 | 96.2 | inactive
Mpzl3 | SID315481160 | -0.23 | enough cells in well | 144 | 156 | inactive
Syne2 | SID315481117 | -0.63 | enough cells in well | 144 | 146 | inactive
Rab6a | SID315468862 | -0.17 | enough cells in well | 379 | 135 | inactive
Or5d16 | SID315480293 | 0.09 | enough cells in well | 181 | 165 | inactive
Lrrc20 | SID315477965 | -0.86 | enough cells in well | 139 | 101 | inactive
Clgn | SID315465997 | -0.8 | enough cells in well | 151 | 179 | inactive
5730493B19Rik | SID315474102 | 0.58 | enough cells in well | 217 | 170 | inactive
Hspa2 | SID315467326 | -0.24 | enough cells in well | 242 | 152 | inactive
Tmem45b | SID315479231 | -0.24 | enough cells in well | 170 | 213 | inactive
Ssbp3 | SID315474558 | – | fewer than 50 cells per well; well left out of calls | 23.2 | 26.7 | inactive
Rarb | SID315478213 | -0.09 | enough cells in well | 293 | 203 | inactive
